## Screening data, single-dose tests

Sequences of proteins named here, by UniProt entry; tags and fusion partners are left off. Residues count along the entry.
UniProt Q8IDJ8, 1-583: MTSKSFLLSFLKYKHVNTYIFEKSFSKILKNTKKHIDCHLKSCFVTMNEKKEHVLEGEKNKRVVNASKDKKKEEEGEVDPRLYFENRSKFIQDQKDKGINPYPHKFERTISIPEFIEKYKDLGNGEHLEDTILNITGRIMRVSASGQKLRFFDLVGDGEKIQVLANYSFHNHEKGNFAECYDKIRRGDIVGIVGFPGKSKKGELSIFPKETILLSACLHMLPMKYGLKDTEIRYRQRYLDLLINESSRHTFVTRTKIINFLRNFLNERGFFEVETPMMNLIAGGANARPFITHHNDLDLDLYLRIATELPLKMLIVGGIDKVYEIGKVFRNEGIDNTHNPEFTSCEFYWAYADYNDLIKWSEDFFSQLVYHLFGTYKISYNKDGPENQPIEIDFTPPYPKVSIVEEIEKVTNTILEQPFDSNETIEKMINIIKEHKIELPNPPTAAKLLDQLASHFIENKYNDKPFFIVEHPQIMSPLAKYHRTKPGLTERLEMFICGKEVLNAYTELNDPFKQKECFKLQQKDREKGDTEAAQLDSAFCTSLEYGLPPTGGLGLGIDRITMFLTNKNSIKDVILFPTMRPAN

Source: ChEMBL document CHEMBL3988442, “University of Dundee, Small-Polar-MMV Screening Library” (2021).

Each number is a percent effect as filed. The record does not define 0% and 100%; most values in the screen are far below 50% and negative numbers occur (in some assays of this library far below -100). The compounds are a random part of those screened.

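Enzyme assay of the cytosolic lysyl-tRNA synthetase in 384-well plates, read by luminescence. Target: Lysine-tRNA ligase, Plasmodium falciparum 3D7 (UniProt Q8IDJ8). Concentration: 30 µM. Direction is inferred from only a few compounds that gave an IC50; most scored high, so higher reads as stronger inhibition. Of about 69,000 compounds tested this way, about 49 (0.071%) reached 50% or more in at least one test.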

Compound: CCC[C@@H]1CN(C(=O)c2cc3ccccc3s2)C[C@H]1NS(C)(=O)=O
percent effect: 1.011

Compound: CC(C(=O)NC(N)=O)N1CCN(c2ccc(C#N)cc2F)CC1 (stereo not drawn)
percent effect: 0.3159

Compound: CCCN1CCC(Cc2nc(CN3CCN(C)CC3)no2)CC1
percent effect: 8.413

Compound: O=C(C1CC1)N1CCN(Cc2ccncc2)c2ncccc2C1
percent effect: 5.85

Compound: Cc1nnc(C2Cc3ccccc3CN2Cc2ncc(Cl)n2C)o1 (stereo not drawn)
percent effect: 2.822

Compound: COc1ccc(-c2noc(CN3CCN(c4cnccn4)CC3)n2)cc1
percent effect: -2.037

Compound: CCN1CCn2c(C)cnc2C12CCN(C(=O)c1cscn1)CC2
percent effect: 0.4984

Compound: CCc1cccc(OCCn2cccc(C#N)c2=O)c1
percent effect: 6.673

Compound: CN1CCN(Cc2cccnc2)C(=O)C12CCN(S(C)(=O)=O)CC2
percent effect: 4.691

Compound: CCn1cc(NC(=O)CN2C(=O)CC(C)(C)c3ccccc32)cn1
percent effect: 0.7093

Compound: COC(=O)[C@H](C)NC(=O)c1nc(C2CC2)n(-c2ccccc2Cl)n1
percent effect: 0.5447

Compound: Cc1cc(O)ccc1-c1cc(-c2cnn(C)c2C2CC2)c(C#N)c(N)n1
percent effect: 7.149

Compound: Cc1nn(C)c(C)c1CC(C)NC(=O)NCc1ccoc1C (stereo not drawn)
percent effect: 3.858

Compound: Cc1nc2c(c(C)c1CC(=O)NCc1cccc(C#N)c1)c(=O)[nH]n2C
percent effect: 2.719

Compound: Cc1noc(C(C)C)c1C(=O)NCC(c1ccsc1)N(C)C (stereo not drawn)
percent effect: 0.08296

Compound: CN(Cc1cccnc1)C(CO)c1cccc(Br)c1 (stereo not drawn)
percent effect: 0.5295

Compound: CCCN1CCN(S(=O)(=O)c2ncn(C)c2Cl)CC1
percent effect: 6.821

Compound: Cc1ccc(-c2nc(CNC3CCc4ncnn4C3)co2)cc1 (stereo not drawn)
percent effect: 3.065

Compound: Cc1cc(CS(=O)(=O)CC(=O)N2c3ccccc3CC2C)no1 (stereo not drawn)
percent effect: 7.075

Compound: O=C(NCC1CCCN(C(=O)NCCc2ccccc2)C1)c1ccco1 (stereo not drawn)
percent effect: 3.862

Compound: CC(C)CN1CC(C(=O)NCCOc2ccc3c(c2)OCO3)CC1=O (stereo not drawn)
percent effect: -1.074

Compound: CC(C)c1ncc(CN2CCC(O)(c3ccccc3F)CC2)cn1
percent effect: 0.4837

Compound: COCCN(CCOC)c1ncccc1Cl
percent effect: 0.71

Compound: N#CCCN(c1ccc(F)cc1)S(=O)(=O)CC1CCCCO1 (stereo not drawn)
percent effect: 4.688

Compound: Cc1cc(C)c(Cn2cncn2)cc1CN1CC[C@H](CO)[C@@H](O)C1
percent effect: 1.107

Compound: COC(=O)c1ccc(N(C(=O)c2cc(Cl)ccn2)C(C)C)c(C)c1
percent effect: 2.013

Compound: Cc1ncsc1CCC(=O)NCc1cc2n(n1)CCNC2
percent effect: 10.01

Compound: CN(Cc1cccnc1)C1CC2(CCN(c3ncccn3)CC2)C1
percent effect: 4.024

Compound: Cn1cnc2cc(C(=O)N3CCC(c4ccccc4C(=O)O)C3)cnc21 (stereo not drawn)
percent effect: 6.871

Compound: COc1ccc(C[C@H]2CN(C(=O)c3ccn(C)n3)CC[C@H]2OC)cc1
percent effect: -1.219

Compound: Cc1ccccc1Cn1nnc2cc3c(cc2c1=O)OCCO3
percent effect: 6.933

Compound: CC[S+](CC)[c-]1c(=O)[nH]c(=O)n(Cc2ccc(F)cc2)c1=O
percent effect: 2.51

Compound: CCS(=O)(=O)NCCCNc1cc(N2CCCC2CO)ncn1 (stereo not drawn)
percent effect: 5.684

Compound: COCCN1CCC(CNC(=O)C2(c3cccc(C)c3)CC2)C1 (stereo not drawn)
percent effect: -1.398

Compound: Cn1cnnc1C1CCCN(C(=O)NCCn2ccnc2)C1 (stereo not drawn)
percent effect: 0.7469

Compound: c1cnn(CC2CN(CCCOc3ccc4c(c3)OCO4)CCO2)c1 (stereo not drawn)
percent effect: 0.3922

Compound: COc1ccc2[nH]c3c(c2c1)CN(c1cc(NCCO)nc(N)n1)CC3
percent effect: -1.77

Compound: O=C(c1csc2nc(-c3ccc(Cl)cc3)cn12)N1CCCC(CO)C1 (stereo not drawn)
percent effect: -3.823

Compound: N#Cc1c(SCCN2CCCCC2)sc2c(O)cc(O)nc12
percent effect: 1.481

Repeated from the top, 2 entries:

| Compound | percent effect |
|---|---|
| `CCC[C@@H]1CN(C(=O)c2cc3ccccc3s2)C[C@H]1NS(C)(=O)=O` | 1.011 |
| `CC(C(=O)NC(N)=O)N1CCN(c2ccc(C#N)cc2F)CC1` (stereo not drawn) | 0.3159 |